Data taken from patent US20050053985A1.
Results are given in words; binding and its absence hold for the method and conditions named. Binding seen in cells or lysates may run through a third protein. Some results given as binding are weak or reduced against the parent protein; the word gives no strength. Sequences can lack the tags named with a protein.

The chains behind the UniProt entries cited, without tags or fusion partners.
UniProt O95639: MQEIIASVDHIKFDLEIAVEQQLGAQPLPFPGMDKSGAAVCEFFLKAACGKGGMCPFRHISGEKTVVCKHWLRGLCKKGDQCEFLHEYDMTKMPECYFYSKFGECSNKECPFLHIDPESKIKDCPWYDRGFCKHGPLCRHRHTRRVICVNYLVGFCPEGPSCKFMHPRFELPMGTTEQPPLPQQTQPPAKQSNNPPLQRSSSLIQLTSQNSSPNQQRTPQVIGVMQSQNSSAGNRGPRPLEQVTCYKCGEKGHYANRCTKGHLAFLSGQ

What was measured:
[1] = target: T1, CstF64 (64 kD subunit 2) (human) (UniProt P33240); experiment: co-purification (anti-Flag then Ni beads), SDS-PAGE, Western blot
T1 sequence (looked up): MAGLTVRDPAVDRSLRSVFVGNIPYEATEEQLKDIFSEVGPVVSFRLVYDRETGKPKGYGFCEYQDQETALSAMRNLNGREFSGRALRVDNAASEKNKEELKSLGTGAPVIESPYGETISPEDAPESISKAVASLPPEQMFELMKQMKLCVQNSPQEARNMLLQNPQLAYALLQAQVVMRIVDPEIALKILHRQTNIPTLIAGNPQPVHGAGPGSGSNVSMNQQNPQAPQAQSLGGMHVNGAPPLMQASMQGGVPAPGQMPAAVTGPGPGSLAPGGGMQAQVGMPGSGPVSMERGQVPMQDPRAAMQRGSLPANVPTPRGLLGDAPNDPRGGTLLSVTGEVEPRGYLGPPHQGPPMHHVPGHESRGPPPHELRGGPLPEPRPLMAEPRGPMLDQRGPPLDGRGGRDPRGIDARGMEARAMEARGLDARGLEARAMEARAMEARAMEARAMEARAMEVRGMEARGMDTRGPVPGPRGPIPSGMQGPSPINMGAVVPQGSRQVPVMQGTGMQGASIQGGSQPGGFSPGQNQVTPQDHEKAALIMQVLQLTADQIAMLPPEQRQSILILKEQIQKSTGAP

[2] = target: CPSF30 (30 kD factor 4) (human) (UniProt O95639); experiment: as above
HsSen54 (human) = target: T2, HsSen54 (human) (UniProt Q7Z6J9); experiment: co-purification (anti-Flag then Ni beads), SDS-PAGE, silver staining
T2 sequence (looked up): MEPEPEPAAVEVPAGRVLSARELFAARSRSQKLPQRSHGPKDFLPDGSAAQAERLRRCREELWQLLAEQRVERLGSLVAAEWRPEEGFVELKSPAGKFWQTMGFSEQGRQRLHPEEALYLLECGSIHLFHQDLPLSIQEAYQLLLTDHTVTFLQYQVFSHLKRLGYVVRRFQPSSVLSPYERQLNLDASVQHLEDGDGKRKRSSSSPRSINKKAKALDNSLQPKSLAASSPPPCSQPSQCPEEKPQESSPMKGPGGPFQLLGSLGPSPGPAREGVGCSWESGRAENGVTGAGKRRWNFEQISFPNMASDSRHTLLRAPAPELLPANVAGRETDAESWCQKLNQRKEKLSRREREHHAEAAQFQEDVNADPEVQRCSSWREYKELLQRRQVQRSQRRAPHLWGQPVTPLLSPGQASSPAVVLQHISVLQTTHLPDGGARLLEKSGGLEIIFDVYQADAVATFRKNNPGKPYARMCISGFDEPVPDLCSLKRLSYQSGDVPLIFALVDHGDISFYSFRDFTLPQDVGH

HsSen2 (human) = target: T3, HsSen2 (human) (UniProt Q8NCE0); experiment: as above
T3 sequence (looked up): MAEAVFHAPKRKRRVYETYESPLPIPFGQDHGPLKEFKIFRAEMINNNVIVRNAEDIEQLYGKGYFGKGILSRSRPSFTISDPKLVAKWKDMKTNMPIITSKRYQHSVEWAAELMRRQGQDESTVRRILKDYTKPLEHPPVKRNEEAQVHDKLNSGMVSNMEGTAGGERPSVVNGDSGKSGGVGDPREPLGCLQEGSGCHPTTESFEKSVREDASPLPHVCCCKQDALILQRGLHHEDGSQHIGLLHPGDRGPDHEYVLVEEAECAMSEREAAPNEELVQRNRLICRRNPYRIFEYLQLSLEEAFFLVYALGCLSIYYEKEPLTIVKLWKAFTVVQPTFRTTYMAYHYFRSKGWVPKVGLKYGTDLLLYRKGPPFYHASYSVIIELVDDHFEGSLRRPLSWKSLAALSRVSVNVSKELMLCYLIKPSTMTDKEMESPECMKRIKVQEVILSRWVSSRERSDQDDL

HsSen34 (human) = target: T4, HsSen34 (human) (UniProt Q9BSV6); experiment: as above
T4 sequence (looked up): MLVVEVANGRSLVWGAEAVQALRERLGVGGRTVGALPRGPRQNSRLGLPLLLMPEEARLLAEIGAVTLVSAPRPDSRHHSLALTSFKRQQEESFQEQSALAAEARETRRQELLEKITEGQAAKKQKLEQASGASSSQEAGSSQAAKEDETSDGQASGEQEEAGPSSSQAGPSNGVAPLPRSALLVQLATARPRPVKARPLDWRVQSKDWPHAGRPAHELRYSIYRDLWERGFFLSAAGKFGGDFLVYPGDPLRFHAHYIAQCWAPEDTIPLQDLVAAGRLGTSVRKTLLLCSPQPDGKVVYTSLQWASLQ

[3] = target: T1, CstF64 (64 kD subunit 2) (human); experiment: co-purification with the His-Flag-tagged bait from stable 293 cells (anti-Flag beads, then Ni beads); SDS-PAGE, Western blot with anti-CstF64 antibody

Measured: binding

B1: His-Flag-HsClp1 (protein, human, UniProt Q92989 1-425, looked up, not shown: small tags and cut ends)
chain: MGEEANDDKKPTTKFELERETELRFEVEASQSVQLELLTGMAEIFGTELTRNKKFTFDAGAKVAVFTWHGCSVQLSGRTEVAYVSKDTPMLLYLNTHTALEQMRRQAEKEEERGPRVMVVGPTDVGKSTVCRLLLNYAVRLGRRPTYVELDVGQGSVSIPGTMGALYIERPADVEEGFSIQAPLVYHFGSTTPGTNIKLYNKITSRLADVFNQRCEVNRRASVSGCVINTCGWVKGSGYQALVHAASAFEVDVVVVLDQERLYNELKRDLPHFVRTVLLPKSGGVVERSKDFRRECRDERIREYFYGFRGCFYPHAFNVKFSDVKIYKVGAPTIPDSCLPLGMSQEDNQLKLVPVTPGRDMVHHLLSVSTAEGTEENLSETSVAGFIVVTSVDLEHQVFTVLSPAPRPLPKNFLLIMDIRFMDLK
binds: [1] | [2] | HsSen54 (human) | HsSen2 (human) | HsSen34 (human) | [3]
